Results as given in the supplement of paper PMC10849652.
Some of the results follow.

By UniProt entry, the sequences of proteins in these tests, tags left out. Where a name states a change or a piece, a line headed by the entry shows the natural chain unless it says otherwise.
UniProt Q12933: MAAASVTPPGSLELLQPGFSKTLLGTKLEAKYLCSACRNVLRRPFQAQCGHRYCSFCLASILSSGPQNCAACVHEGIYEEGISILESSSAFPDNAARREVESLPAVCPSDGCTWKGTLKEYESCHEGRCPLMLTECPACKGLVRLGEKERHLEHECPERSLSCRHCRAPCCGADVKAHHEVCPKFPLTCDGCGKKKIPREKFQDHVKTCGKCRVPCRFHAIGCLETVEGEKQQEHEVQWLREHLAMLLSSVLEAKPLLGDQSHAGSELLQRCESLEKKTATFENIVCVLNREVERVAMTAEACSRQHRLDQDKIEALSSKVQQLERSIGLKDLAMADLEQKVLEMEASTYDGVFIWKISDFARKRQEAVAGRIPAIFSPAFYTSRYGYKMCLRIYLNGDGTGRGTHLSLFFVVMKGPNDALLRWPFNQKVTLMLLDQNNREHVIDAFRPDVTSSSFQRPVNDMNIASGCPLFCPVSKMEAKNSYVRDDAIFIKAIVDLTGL
UniProt Q5BVD1: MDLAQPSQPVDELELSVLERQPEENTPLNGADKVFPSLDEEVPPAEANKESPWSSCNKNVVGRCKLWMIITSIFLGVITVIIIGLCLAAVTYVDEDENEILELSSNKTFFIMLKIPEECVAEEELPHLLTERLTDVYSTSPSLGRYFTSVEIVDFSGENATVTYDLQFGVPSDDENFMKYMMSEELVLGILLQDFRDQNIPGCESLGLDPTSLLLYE
UniProt Q9NX07: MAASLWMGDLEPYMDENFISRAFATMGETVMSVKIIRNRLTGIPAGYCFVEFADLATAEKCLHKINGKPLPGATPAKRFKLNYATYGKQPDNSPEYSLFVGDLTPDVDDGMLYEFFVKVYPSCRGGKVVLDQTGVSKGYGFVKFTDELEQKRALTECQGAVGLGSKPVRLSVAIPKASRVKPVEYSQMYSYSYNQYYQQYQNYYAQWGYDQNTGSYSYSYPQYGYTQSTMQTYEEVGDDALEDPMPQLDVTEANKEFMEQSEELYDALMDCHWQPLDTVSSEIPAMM
UniProt Q9BRZ2: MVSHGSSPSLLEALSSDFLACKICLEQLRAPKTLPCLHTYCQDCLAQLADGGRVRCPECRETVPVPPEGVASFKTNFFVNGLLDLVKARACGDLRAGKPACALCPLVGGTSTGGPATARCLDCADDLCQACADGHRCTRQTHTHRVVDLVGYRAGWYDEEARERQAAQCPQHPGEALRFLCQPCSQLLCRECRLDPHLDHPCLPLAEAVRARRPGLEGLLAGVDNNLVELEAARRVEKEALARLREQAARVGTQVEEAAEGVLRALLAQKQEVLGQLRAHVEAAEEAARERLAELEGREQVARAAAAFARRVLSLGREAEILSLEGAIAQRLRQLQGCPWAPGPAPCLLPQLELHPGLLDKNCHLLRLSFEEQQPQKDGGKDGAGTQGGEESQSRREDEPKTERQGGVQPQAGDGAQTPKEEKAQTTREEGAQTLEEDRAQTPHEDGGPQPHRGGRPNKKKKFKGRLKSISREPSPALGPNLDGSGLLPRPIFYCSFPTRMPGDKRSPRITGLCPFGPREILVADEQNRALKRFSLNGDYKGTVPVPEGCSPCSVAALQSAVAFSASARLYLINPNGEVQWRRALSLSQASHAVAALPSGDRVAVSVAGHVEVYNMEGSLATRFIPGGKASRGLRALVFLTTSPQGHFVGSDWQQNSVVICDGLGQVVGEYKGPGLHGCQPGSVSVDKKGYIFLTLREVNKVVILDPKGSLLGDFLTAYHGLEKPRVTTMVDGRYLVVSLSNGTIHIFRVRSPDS
UniProt Q96F44: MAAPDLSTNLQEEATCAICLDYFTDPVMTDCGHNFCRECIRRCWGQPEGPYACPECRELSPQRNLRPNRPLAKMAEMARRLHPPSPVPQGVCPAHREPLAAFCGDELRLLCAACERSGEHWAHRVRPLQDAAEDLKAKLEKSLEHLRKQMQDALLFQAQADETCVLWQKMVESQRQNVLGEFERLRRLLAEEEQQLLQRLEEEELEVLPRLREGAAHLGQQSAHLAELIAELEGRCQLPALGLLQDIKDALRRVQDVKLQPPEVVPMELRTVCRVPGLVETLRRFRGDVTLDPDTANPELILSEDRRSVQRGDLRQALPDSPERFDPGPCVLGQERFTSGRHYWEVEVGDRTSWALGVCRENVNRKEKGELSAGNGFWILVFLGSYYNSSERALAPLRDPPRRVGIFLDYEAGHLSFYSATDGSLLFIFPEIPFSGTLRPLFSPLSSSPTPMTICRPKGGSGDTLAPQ
UniProt Q9UL33, whole entry, looked up: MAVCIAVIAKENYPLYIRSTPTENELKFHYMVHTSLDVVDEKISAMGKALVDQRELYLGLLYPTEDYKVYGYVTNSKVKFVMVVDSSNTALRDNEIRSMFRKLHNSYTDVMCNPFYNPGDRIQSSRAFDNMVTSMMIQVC
UniProt Q9BSV6: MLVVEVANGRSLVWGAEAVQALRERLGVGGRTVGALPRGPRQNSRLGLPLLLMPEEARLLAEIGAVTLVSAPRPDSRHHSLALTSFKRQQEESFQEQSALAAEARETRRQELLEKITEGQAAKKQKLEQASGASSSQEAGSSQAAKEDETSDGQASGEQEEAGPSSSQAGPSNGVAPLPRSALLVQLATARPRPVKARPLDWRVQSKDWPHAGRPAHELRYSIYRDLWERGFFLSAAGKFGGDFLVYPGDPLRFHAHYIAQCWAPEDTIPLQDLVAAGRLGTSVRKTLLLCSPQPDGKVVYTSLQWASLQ
UniProt Q8WVT3: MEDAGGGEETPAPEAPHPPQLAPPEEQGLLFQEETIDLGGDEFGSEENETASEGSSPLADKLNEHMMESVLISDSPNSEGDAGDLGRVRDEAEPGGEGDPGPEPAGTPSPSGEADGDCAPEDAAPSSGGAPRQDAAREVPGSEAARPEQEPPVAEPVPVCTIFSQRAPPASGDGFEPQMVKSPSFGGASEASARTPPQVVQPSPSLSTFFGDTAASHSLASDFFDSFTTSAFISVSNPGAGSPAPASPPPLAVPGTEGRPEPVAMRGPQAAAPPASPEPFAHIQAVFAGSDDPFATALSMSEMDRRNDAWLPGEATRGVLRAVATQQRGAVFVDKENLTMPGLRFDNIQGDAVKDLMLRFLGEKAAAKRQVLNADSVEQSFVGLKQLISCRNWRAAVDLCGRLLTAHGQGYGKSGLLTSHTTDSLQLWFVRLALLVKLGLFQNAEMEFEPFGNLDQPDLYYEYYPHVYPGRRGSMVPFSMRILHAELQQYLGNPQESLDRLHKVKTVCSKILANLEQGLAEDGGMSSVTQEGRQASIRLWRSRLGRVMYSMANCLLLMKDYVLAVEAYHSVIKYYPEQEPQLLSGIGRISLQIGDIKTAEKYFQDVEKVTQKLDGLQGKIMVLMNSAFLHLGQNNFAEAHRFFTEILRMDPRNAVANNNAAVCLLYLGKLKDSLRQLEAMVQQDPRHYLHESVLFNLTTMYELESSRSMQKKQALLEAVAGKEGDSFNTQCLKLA
UniProt Q9UJK0: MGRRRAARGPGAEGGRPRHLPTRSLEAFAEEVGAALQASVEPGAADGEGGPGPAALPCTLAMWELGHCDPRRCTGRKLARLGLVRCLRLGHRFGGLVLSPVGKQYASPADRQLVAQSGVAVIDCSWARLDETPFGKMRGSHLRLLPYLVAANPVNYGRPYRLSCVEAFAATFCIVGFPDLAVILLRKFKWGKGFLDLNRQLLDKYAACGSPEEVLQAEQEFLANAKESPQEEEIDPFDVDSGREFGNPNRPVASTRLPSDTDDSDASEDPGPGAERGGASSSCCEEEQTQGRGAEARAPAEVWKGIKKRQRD
UniProt P33981: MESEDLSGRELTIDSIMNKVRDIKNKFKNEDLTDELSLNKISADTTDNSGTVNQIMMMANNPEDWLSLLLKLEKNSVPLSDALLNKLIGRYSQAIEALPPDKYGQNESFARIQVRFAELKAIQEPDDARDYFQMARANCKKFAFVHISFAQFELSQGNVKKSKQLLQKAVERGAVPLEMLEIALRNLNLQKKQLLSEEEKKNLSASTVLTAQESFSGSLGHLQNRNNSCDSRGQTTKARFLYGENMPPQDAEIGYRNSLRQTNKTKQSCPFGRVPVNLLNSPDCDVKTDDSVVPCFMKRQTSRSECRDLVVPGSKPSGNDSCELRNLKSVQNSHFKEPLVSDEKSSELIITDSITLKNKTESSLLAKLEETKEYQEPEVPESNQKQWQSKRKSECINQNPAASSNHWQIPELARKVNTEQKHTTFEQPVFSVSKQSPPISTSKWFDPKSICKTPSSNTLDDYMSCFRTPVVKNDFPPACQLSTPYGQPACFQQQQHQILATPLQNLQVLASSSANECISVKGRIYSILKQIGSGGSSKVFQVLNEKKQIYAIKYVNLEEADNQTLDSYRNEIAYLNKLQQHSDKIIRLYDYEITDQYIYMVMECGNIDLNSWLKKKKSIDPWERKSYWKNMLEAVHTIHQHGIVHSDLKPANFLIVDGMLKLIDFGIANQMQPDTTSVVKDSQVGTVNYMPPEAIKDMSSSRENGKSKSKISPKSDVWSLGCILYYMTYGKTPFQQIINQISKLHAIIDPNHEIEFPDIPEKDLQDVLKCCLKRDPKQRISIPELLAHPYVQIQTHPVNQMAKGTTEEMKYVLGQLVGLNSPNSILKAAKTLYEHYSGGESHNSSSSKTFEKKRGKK
UniProt O75648: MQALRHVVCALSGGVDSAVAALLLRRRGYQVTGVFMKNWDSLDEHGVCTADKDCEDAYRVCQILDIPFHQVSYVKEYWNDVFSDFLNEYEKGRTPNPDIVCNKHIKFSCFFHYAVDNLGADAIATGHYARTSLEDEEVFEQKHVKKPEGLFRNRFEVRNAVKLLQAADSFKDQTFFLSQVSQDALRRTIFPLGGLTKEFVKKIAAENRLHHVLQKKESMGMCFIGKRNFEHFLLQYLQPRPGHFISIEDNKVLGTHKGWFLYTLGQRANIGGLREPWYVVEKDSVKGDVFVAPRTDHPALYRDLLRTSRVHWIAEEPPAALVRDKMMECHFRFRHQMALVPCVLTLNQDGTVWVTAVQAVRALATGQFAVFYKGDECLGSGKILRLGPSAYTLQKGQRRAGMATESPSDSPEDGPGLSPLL
UniProt Q6NXR4: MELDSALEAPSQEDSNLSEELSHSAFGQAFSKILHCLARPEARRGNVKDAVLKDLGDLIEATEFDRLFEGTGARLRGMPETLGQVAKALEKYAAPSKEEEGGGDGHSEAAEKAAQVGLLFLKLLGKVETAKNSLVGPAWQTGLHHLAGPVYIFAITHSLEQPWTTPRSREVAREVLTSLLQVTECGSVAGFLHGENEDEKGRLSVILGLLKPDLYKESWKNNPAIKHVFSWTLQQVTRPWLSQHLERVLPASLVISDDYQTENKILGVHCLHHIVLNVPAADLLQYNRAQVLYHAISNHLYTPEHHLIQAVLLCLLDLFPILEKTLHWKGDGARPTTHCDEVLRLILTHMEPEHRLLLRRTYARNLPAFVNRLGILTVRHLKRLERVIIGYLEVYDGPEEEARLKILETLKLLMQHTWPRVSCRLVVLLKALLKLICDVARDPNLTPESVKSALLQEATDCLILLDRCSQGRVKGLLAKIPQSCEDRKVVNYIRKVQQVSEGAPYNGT
UniProt P43897: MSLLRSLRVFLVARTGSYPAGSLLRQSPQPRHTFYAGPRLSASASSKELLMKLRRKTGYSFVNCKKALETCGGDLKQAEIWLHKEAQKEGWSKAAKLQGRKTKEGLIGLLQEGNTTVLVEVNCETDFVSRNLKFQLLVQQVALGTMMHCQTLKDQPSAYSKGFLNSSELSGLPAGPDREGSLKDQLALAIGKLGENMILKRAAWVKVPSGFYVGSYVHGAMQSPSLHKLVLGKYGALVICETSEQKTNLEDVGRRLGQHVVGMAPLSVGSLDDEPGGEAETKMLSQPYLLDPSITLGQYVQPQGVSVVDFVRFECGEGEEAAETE
UniProt Q9Y5S1: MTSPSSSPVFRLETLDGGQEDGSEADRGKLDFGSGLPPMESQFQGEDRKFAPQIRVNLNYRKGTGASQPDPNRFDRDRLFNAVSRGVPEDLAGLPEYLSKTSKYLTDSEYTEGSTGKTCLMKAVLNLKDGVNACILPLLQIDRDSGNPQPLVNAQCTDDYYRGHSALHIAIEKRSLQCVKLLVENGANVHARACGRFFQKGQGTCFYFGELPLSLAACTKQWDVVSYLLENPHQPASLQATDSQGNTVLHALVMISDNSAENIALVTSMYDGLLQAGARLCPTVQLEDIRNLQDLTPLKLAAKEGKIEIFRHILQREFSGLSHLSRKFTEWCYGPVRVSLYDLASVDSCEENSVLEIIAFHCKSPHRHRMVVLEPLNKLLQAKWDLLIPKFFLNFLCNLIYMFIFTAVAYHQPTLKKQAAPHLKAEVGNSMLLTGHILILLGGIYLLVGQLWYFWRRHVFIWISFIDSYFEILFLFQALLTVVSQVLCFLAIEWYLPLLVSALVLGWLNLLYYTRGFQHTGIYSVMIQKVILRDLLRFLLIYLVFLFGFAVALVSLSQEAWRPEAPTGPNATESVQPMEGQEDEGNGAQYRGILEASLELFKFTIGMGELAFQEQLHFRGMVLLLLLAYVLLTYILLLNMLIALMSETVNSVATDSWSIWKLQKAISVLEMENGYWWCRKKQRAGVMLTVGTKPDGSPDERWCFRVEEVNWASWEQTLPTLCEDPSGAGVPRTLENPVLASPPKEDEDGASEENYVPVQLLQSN

Columns and labels:
Assay in all cases: log2 fold change, soluble protein after heating vs DMSO (PISA); higher = thermal stabilisation; K562 lysate, 10 uM; active = over 0.2 and 3.5 SD of the protein, either way, in both replicates (recomputed)
[1] = compound: C1=CC=C(C=C1)[C@H](COC2=CC3=C(C=C2)NC(=O)N3)NC(=O)C4=CC=CN(C4=O)CC5=CC(=C(C=C5)F)F
How it was run: (§1)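 Thermal stability, expressed as log-two fold change relative to solvent controls, is given from duplicates. Crude K562 extract in PBS pH 7.4 with 1 mM MgCl2, at 1 mg/mL protein, was treated with 10 μM compound for 30 min and heated in aliquots for 3 min across 48°C-58°C. After pooling, adjustment to 0.5% NP-40 at 4°C and centrifugation at 21,000xg for 90 min, supernatant protein was measured by TMTpro 16plex LC-MS/MS with channel sums equalised.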

[2] = compound: CC1=C(SC2=C1C(=N[C@H](C3=NN=C(N32)C)CC(=O)N)C4=CC=C(C=C4)Cl)C
How it was run: as §1

[3] = compound: CC1=C2C(=CC=C1)N=C(N(C2=O)C3=CC=CC=C3C)CN4C=NC5=C(N=CN=C54)N
How it was run: as §1

[4] = compound: Cc1sc2c(c1C)C(c1ccc(Cl)cc1)=N[C@@H](CC(=O)OC(C)(C)C)c1nnc(C)n1-2
How it was run: as §1

[5] = compound: c1ccc([C@@H]2C[C@H]2NC2CCNCC2)cc1
How it was run: as §1

Measured: log2 fold change

TRIP10 (UniProt Q15642)
inactive: [1] 0.128 | [2] -0.018 | [3] -0.008 | [4] -0.043 | [5] -0.047

TRAF2 isoform 2 (UniProt Q12933)
inactive: [1] -0.006 | [2] 0.005 | [3] -0.005 | [4] -0.002 | [5] -0.015

TRAPPC2L (UniProt H3BQQ8)
inactive: [1] -0.039 | [2] 0.013

TRIO (UniProt O75962)
inactive: [1] -0.05 | [2] 0.04 | [3] 0.058 | [4] 0.052 | [5] 0.004

TTMP isoform 3 (UniProt Q5BVD1)
inactive: [1] -0.051 | [2] 0.091 | [3] 0.135 | [4] -0.148 | [5] -0.498

TRNAU1AP (UniProt Q9NX07)
inactive: [1] -0.068 | [2] -0.008 | [3] 0.195 | [4] -0.025 | [5] -0.048

TRIP11 (UniProt Q15643)
inactive: [1] 0.057 | [2] -0.002 | [3] 0.025 | [4] -0.013 | [5] -0.031

TRIM56 (UniProt Q9BRZ2)
inactive: [1] -0.057 | [2] -0.009 | [3] 0.076 | [4] 0.003 | [5] 0.099

TRIM11 (UniProt Q96F44)
inactive: [1] 0.028 | [2] 0.035 | [3] 0.04 | [4] -0.011 | [5] -0.001

TRIP10 isoform 2 (UniProt Q15642)
inactive: [1] 0.028 | [2] 0.023 | [3] -0.136 | [4] -0.212 | [5] 0.004

TRAPPC2L (UniProt Q9UL33)
inactive: [1] -0.017 | [2] 0.066 | [3] 0.071 | [4] 0.006 | [5] -0.041

Copied from the entries so far (two entries):
TRIP11 (UniProt Q15643)
inactive: [1] 0.057 | [2] -0.002 | [3] 0.025 | [4] -0.013 | [5] -0.031

TRIM56 (UniProt Q9BRZ2)
inactive: [1] -0.057 | [2] -0.009 | [3] 0.076 | [4] 0.003 | [5] 0.099

Further entries:

TSEN34 (UniProt Q9BSV6)
inactive: [1] -0.031 | [2] -0.034 | [3] -0.055 | [4] -0.008 | [5] 0.06

TRAPPC12 (UniProt Q8WVT3)
inactive: [1] 0.005 | [2] -0.016 | [3] -0.023 | [4] 0.003 | [5] 0.015

TTC27 (UniProt Q6P3X3)
inactive: [1] -0.039 | [2] -0.021 | [3] 0.028 | [4] -0.019 | [5] 0.032

TTC28 (UniProt Q96AY4)
inactive: [1] 0.028 | [2] -0.015 | [3] -0.071

TTI1 (UniProt O43156)
inactive: [1] -0.004 | [2] -0.011 | [3] -0.004 | [4] 0.034 | [5] 0.051

TSR3 (UniProt Q9UJK0)
inactive: [1] 0.034 | [2] 0.034 | [3] 0.024 | [4] 0.002 | [5] -0.038

TTF2 (UniProt Q9UNY4)
inactive: [1] -0.092 | [2] 0.029 | [3] 0.003 | [4] 0.127 | [5] 0.003

TTK (UniProt P33981)
inactive: [1] -0.016 | [2] -0.003 | [3] 0.068 | [4] 0.02 | [5] 0.003

TRMU (UniProt O75648)
inactive: [1] 0.068 | [2] -0.038 | [3] 0.008 | [4] 0.015 | [5] -0.06

TTI2 (UniProt Q6NXR4)
inactive: [1] -0.044 | [2] 0.009 | [3] 0.033 | [4] -0.035 | [5] 0.024

TSFM (UniProt P43897)
inactive: [1] 0.006 | [2] 0.007 | [3] 0.027 | [4] 0.066 | [5] -0.092

TTC33 (UniProt Q6PID6)
inactive: [1] 0.03 | [2] -0.037 | [3] 0.003 | [4] -0.036 | [5] 0.034

TRAF3IP1 (UniProt Q8TDR0)
inactive: [1] 0.056 | [2] 0.071 | [3] 0.061 | [4] -0.029

TRPV2 (UniProt Q9Y5S1)
inactive: [1] 0.041 | [2] -0.017 | [3] 0.019 | [4] 0.013 | [5] -0.048
